Data as given in paper PMC3197689.

target: T1, Zelda (Zld), recombinant (Drosophila melanogaster) (UniProt Q9VWC6); assay: EMSA; settings: EMSA as previously described (ref 3); pH and temperature not given; recombinant protein
T1 sequence (looked up, limits assumed): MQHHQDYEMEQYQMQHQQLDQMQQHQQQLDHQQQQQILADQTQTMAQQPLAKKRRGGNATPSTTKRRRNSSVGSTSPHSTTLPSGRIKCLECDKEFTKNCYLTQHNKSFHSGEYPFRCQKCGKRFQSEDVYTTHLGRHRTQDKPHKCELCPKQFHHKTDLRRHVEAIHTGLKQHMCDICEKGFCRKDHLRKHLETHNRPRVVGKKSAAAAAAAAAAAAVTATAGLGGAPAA

| Sequence | binding result |
| --- | --- |
| AAAGGATCAGGTACCCGGGGT (double strand) [nullo-1 (CAGGTAC)] | binds |
| ACAATTGCAGGTAAGTAGAGC (double strand) [eve3 (CAGGTAA)] | binds |
| ATAAACACAGGCAGCTGGTGC (double strand) [zen3 (CAGGCAG)] | binds |
| CACTATTTAGGTAGACACTGT (double strand) [zen1 (TAGGTAG)] | binds |
| CACTATTTGAATAGACACTGT (double strand) [zen1m (TGAATAG)] | no binding |
| CCAGCCGCAGGTATTTAGTTC (double strand) [tat (CAGGTAT)] | binds |
| GTCGGAGCAGGCAACGGGCAT (double strand) [nullo-2 (CAGGCAA)] | binds |
| TCACTACTATCGATGACGATG (double strand) [tatcgat (TATCGAT)] | no binding |
| TCGTCGGTAGGTAAAAGTTGT (double strand) [sema1 (TAGGTAA)] | binds |
| TGGGTTTCAGGTAGGTGAATA (double strand) [zen2 (CAGGTAG)] | binds |

The exact form of at least one protein or probe is not confirmed. Negatives hold for the conditions tested. Where a protein sequence is shown, tags need not be part of it.
